Laboratory results as given in PMC6925144, “A prospective compound screening contest identified broader inhibitors for Sirtuin 1” (Scientific Reports, 2019).
The full ranking holds about 3,200 compounds; the median of “TSA(without NAD+) / Primary screening (TSA) / delta Tm (K)” is about -0.07, and the highest 2% start at about 0.37. This is one part of the list.

Protein sequences, listed by entry. Tags and fused reporters are not part of them. Residues count along the entry.
UniProt Q96EB6, 2-747 limits assumed: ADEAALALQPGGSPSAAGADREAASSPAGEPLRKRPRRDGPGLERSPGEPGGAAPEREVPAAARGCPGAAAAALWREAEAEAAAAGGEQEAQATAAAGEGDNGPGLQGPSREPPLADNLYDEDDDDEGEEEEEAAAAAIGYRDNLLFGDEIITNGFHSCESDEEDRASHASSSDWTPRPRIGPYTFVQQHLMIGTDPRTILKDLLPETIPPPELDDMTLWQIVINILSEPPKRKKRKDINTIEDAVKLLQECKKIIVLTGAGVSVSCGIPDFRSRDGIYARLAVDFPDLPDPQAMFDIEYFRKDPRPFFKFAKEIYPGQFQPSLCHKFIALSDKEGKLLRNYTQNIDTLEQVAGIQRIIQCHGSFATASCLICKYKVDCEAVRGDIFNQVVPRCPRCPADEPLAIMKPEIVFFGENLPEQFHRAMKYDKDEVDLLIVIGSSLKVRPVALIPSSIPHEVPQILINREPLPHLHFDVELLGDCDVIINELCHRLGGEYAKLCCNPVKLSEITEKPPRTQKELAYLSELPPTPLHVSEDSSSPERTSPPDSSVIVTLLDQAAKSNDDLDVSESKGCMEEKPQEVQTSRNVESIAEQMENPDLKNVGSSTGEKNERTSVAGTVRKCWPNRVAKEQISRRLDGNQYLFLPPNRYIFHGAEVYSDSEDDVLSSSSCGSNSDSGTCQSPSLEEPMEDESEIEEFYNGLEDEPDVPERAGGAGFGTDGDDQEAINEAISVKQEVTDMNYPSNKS

biological target: NAD-dependent deacetylase Sirtuin 1 (human, UniProt Q96EB6); assay: primary screen, delta tm; design: single well (n = 1); details: 10 µM
Method in brief: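 Thermal shift of Sirtuin 1 measured without NAD+, compound at 10 µM (n = 1); value is ΔTm, with hits defined as ΔTm > 0.45 K or < −1.5 K. Hits retested at 5, 10, 20 µM (n = 4) and counterscreened on bovine carbonic anhydrase and ABL1 SH2 domain.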

Row | Structure (SMILES) | TSA(without NAD+) / Primary screening (TSA) / delta Tm (K)
1 | CC(N)CCCCN (stereo not drawn) | -0.22
2 | Cc1ccc(C)c(OCCSc2nnc(-c3cccnc3)n2N)c1 | -0.11
3 | COc1ccc(NC(=O)c2cccc(C(N)=O)c2)cc1OCc1cccnc1 | -0.02
4 | Cn1ccnc1SCc1c(C(=O)O)oc2ccccc12 | 0.02
5 | CN(CC1COc2ccccc2O1)C(=O)CSc1nnc(-c2ccccc2Cl)n1C1CCCC1 (stereo not drawn) | -0.13
6 | CC(NC(=O)c1ccc2c(c1)CCC2)c1ncc[nH]1 (stereo not drawn) | -0.22
7 | Cc1ccc(C=C2C(=O)NC(=S)NC2=O)o1 | -0.13
8 | O=c1scnn1Cc1ncn(-c2ccccc2)n1 | -0.13
9 | Cc1cccn2c(=O)cc(COc3cccc4c3CCCC4O)nc12 (stereo not drawn) | -0.23
10 | Cn1c(=O)[nH]c(=O)c2nc(CC(O)c3cc4ccccc4o3)c(O)nc21 (stereo not drawn) | -0.17
11 | NC(CC(=O)O)C(=O)O (stereo not drawn) | -0.04
12 | CCOC(=O)c1c(NC(=O)C(C)OC(=O)c2cccc(S(=O)(=O)N3CCCC3)c2)sc2c1CCC(C)C2 (stereo not drawn) | 0.18
13 | Cc1ccc(N(C)S(=O)(=O)c2cccc(C(=O)Nc3cc(S(C)(=O)=O)ccc3C)c2)cc1 | 0.22
14 | COc1ccccc1CNC(=O)COC(=O)c1ccccc1SCC(=O)NC12CC3CC(CC(C3)C1)C2 | -0.23
15 | Clc1ncnc2c1nnn2-c1ccccc1 | -0.03
16 | O=C(Nc1ccc(NC(=O)c2[nH]c3ccccc3c2Cl)cc1)NC1CC1 | 0.07
17 | NC(=O)c1cc(NC(=O)c2ccc(NC(=O)NC3CC3)cc2)ccc1F | -0.15
18 | O=c1n(CCCc2nc3ccccc3o2)nc2ccccn12 | -0.08
19 | Cc1nc(-n2ccnc2)c2cnn(-c3cccc(Cl)c3)c2n1 | -0.18
20 | O=C(O)CCCc1ccc2c(c1)-c1ccccc1C2 | -0.11
21 | Cc1no[n+]([O-])c1COc1cccc(C=C2C(=O)NC(=S)NC2=O)c1 | -0.11
22 | O=c1cc(CSc2ncc(C(F)(F)F)cc2Cl)nc2ccccn12 | -0.23
23 | CCc1ccc(CNC(=O)N2CCOC(C)(c3cnn(C)c3)C2)cc1 (stereo not drawn) | -0.15
24 | O=C(CSc1nc2ccccc2o1)N(Cc1ccccc1)c1nc2c(s1)CCCC2 | 0.27

Row | Structure (SMILES) | TSA(without NAD+) / Primary screening (TSA) / delta Tm (K)
25 | CC(C(=O)Nc1ccc(C(N)=O)cc1)N1CCN(CCOc2ccccc2)CC1 (stereo not drawn) | -0.23
26 | CC(Oc1ccc(-c2nc3ccccc3s2)cc1)C(=O)NCc1ccco1 (stereo not drawn) | -0.12
27 | Cc1cc(C#N)ccc1S(=O)(=O)N1CC[C@H](N)C1 | -0.18
28 | CCOCc1c(C(=O)Nc2ccc(N3CCN(Cc4ccccc4)CC3)cc2)oc2ccccc12 | 0.27
29 | COc1ccc(-c2csc3nc(C)nc(N4CCN(CC(=O)NC5CC5)CC4)c23)cc1OC | -0.11
30 | Cc1ccccc1SCC(=O)NC1CCCCNC1=O (stereo not drawn) | -0.12
31 | NC(=O)c1cc(NCC(=O)Nc2ccccc2Cl)c(F)cc1F | -0.12
32 | c1ccc(-c2nc(CN3CCN(c4ncnc5sc6c(c45)CCCC6)CC3)cs2)cc1 | -0.11
33 | Cc1ccc(-c2n[nH]cc2CNCc2ccc(CN(C)C)cc2)cc1 | -0.12
34 | Cc1c(O)ccc2c(CN3CCCC3c3ccc[nH]3)cc(=O)oc12 (stereo not drawn) | -0.05
35 | CCNCCOCCN | -0.11
36 | CC1CCc2sc(C(=O)Nc3ccccc3Cc3ccccc3)cc2C1 (stereo not drawn) | -0.04
37 | Cn1c(SCc2ccc(F)cc2)nc2ccsc2c1=O | -0.14
38 | Cc1noc2ncc(NC(=O)c3c[nH]nc3-c3ccccc3F)cc12 | -0.02
39 | COc1ccc(C2C(C(=O)c3ccco3)=C(O)C(=O)N2CCCN2CCOCC2)cc1 (stereo not drawn) | 0.09
40 | O=c1cc(-c2ccccc2)c2ccc(OCCOc3ccc(Br)cc3)cc2o1 | 0.02
41 | CCCCc1ccc(/N=C/c2ccc3ncccc3c2)cc1 | -0.13
42 | Cc1onc(-c2ccc(F)cc2)c1C(=O)N1CCN(S(=O)(=O)c2ccc3c(c2)CCC3)CC1 | -0.13
43 | COc1ccc(CNC(=O)C(C)OC(=O)c2cc(S(=O)(=O)NC34CC5CC(CC(C5)C3)C4)ccc2Cl)cc1 (stereo not drawn) | -0.05
44 | CC(CN)S(C)=O (stereo not drawn) | -0.22
45 | O=C(CCCc1nc2ccccc2c(=O)[nH]1)N1CC2CC3CC(C2)CC1C3 | 0.02
46 | COc1ccc(NC(C)c2ccc(S(C)=O)cc2)cn1 (stereo not drawn) | -0.18
47 | O=C(/C=C/c1ccc(F)cc1)NCCCn1ccc2ccccc21 | 0.08
48 | Cc1ccc(NC(=O)CCC2CCCO2)cc1I (stereo not drawn) | -0.18

Row | Structure (SMILES) | TSA(without NAD+) / Primary screening (TSA) / delta Tm (K)
49 | CC(OC(=O)c1cc2c(s1)CCCC2)C(=O)Nc1ccc(C(N)=O)cc1 (stereo not drawn) | -0.03
50 | Cc1cccc(NC(=O)COc2ccc3c4c(c(=O)oc3c2)CCC4)c1 | -0.01
51 | O=C(CN1CCCC1=O)Nc1cc(Br)c(F)cc1F | -0.04
52 | NCCCC[C@H](N)C(=O)O | -0.02
53 | CCOC(=O)c1ccc(S(=O)(=O)N2CCC(C(=O)OCC(=O)NCC34CC5CC(CC(C5)C3)C4)CC2)cc1 | -0.13
54 | CC1CCCCN1c1ncnc2c1cnn2-c1ccccc1 (stereo not drawn) | 0.12
55 | O=C(Nc1ccc(N2CCN(Cc3ccccc3)CC2)cc1)c1cccc2cccnc12 | 0.07
56 | COC(=O)CCNc1ncnc2ccsc12 | -0.23
57 | O=C(NC(c1ccccc1)c1ccccc1)c1ccc2ccccc2c1 | 0.03
58 | Cc1ccc(-c2nc(COC(=O)CN3C(=O)c4ccccc4C3=O)cs2)cc1 | -0.14
59 | CC(=O)NCCCN | -0.11
60 | O=C1NC(=O)c2ccccc2/C1=C\NCCCN1CCc2ccccc21 | -0.33
61 | CCNC(=O)c1ccc2[nH]c(C)c(C)c2c1 | -0.03
62 | Cc1ccc(N(C)S(=O)(=O)c2cccc(C(=O)Nc3cccc(C(=O)NC4CC4)c3)c2)cc1 | 0.06
63 | Cc1ccc(F)cc1C(=O)OCc1nc(C(C)C)ns1 | -0.24
64 | CNC(=O)CSc1nnc(-c2c[nH]c3ccccc23)n1Cc1ccco1 | -0.08
65 | O=C(NCc1ccc(S(=O)(=O)N2CCOCC2)s1)C1=COCCO1 | -0.04
66 | Cc1nc(C(=O)Nc2ccc(-c3cn4ccsc4n3)cc2)cs1 | -0.18
67 | COc1ccc(N(C)S(=O)(=O)c2cccc(C(=O)OCc3cc(=O)oc4cc(C)ccc34)c2)cc1 | 0.05
68 | OC1CCN(c2ncnc3c2oc2ccccc23)CC1 | 0.08
69 | Cn1ccnc1C(NC(=O)Cc1ccc(F)cc1)c1ccccc1F (stereo not drawn) | -0.08
70 | CC1CN(S(=O)(=O)CCNC(=O)Nc2cc3c(cc2Cl)OCCO3)CC(C)O1 (stereo not drawn) | -0.17
71 | O=C(CC12CC3CC(CC(O)(C3)C1)C2)Nc1cccc2c1CCCC2 | -0.08
72 | C[C@@H]1C[C@H]1N | -0.13

Ordered by molecular weight (rising): part of the list above.
Row | Structure (SMILES) | TSA(without NAD+) / Primary screening (TSA) / delta Tm (K)
68 | OC1CCN(c2ncnc3c2oc2ccccc23)CC1 | 0.08
23 | CCc1ccc(CNC(=O)N2CCOC(C)(c3cnn(C)c3)C2)cc1 (stereo not drawn) | -0.15
62 | Cc1ccc(N(C)S(=O)(=O)c2cccc(C(=O)Nc3cccc(C(=O)NC4CC4)c3)c2)cc1 | 0.06
67 | COc1ccc(N(C)S(=O)(=O)c2cccc(C(=O)OCc3cc(=O)oc4cc(C)ccc34)c2)cc1 | 0.05

(continued)

Row | Structure (SMILES) | TSA(without NAD+) / Primary screening (TSA) / delta Tm (K)
73 | COCC(O)CN (stereo not drawn) | -0.07
74 | CC(=O)Nc1cc2ccccc2cc1C(=O)NC1CCOc2ccccc21 (stereo not drawn) | -0.12
75 | Cc1ccc(-c2nn(-c3ccccc3)cc2C(=O)NCc2nnc3ccccn23)cc1 | -0.03
76 | O=C(CCc1ccc2c(c1)OCO2)N1CCc2[nH]c3ccccc3c2C1 | -0.15
77 | CCN(C(=O)CSc1nnc(-c2ccc3c(c2)OCO3)o1)C1CCS(=O)(=O)C1 (stereo not drawn) | -0.23
78 | C=CCCCN | 0.06
79 | Cc1cc(NN)n2nc(C(F)(F)F)c(-c3ccc(Cl)cc3)c2n1 | 0.26
80 | O=C(c1ccc2[nH]c3c(c2c1)CCCC3)N1CC1 | -0.22
81 | O=C(O)CCCNc1ncnc2sc3c(c12)CCCC3 | -0.07
82 | CCN(C(=O)CSc1nnc(SCc2ccc(Cl)cc2)s1)C1CCS(=O)(=O)C1 (stereo not drawn) | -0.08
83 | COc1c(C=C2C(=O)NC(=S)NC2=O)ccc2ccccc12 | -0.43
84 | Cc1nn2cccnc2c1C(=O)NCC1CC12CCc1ccccc12 (stereo not drawn) | -0.22
85 | CN(C)S(=O)(=O)c1ccc(C(=O)C2=C(O)C(=O)N(CCN3CCOCC3)C2c2ccco2)cc1 (stereo not drawn) | -0.14
86 | CC(NC(=O)c1occc1-c1ccc(F)cc1)c1ccc2c(c1)CCC(=O)N2 (stereo not drawn) | -0.34
87 | Cc1cc(C)c2cc(C(=O)N3CCC(C(N)=O)CC3)[nH]c2c1 | -0.43
88 | CC1CCc2ccccc2N1C(=O)CSc1n[nH]c2nc3ccccc3n12 (stereo not drawn) | -0.02
89 | Oc1ccc2ccccc2c1/C=N/c1ccc(F)c(F)c1 | 0.08
90 | CCS(=O)(=O)Nc1ccc(S(=O)(=O)Nc2nccs2)c(OC)c1 | -0.18
91 | CC(=O)NC1CCCN(c2nc3ccccc3cc2CO)C1 (stereo not drawn) | -0.05
92 | COc1cccc(C2C(C(=O)/C=C/c3ccco3)=C(O)C(=O)N2CCCN2CCOCC2)c1 (stereo not drawn) | -0.07
93 | Oc1cnc2ccccc2c1 | -0.18
94 | Cc1ccc(COC(=O)c2cccc3c2C(=O)c2ccccc2C3=O)cc1 | 0.27
95 | O=C(/C=C/c1ccccc1)C1=C(O)C(=O)N(CCCN2CCOCC2)C1c1ccc(Cl)cc1 (stereo not drawn) | 0.12
96 | CCOC(=O)C1=C(C)NC(C)=C(C(=O)OCC)C1c1nc2ccccc2[nH]1 | -0.13
